# Test results taken from the supplement of paper PMC3334620.
# The full ranking holds about 33,000 sequences; the median of “E-score (-0.5 to 0.5)” is about -0.015, and the highest 2% start at about 0.3. The list shows a part of the results.
# Biological target: T1, Abf1 (UniProt P14164)
# T1 sequence: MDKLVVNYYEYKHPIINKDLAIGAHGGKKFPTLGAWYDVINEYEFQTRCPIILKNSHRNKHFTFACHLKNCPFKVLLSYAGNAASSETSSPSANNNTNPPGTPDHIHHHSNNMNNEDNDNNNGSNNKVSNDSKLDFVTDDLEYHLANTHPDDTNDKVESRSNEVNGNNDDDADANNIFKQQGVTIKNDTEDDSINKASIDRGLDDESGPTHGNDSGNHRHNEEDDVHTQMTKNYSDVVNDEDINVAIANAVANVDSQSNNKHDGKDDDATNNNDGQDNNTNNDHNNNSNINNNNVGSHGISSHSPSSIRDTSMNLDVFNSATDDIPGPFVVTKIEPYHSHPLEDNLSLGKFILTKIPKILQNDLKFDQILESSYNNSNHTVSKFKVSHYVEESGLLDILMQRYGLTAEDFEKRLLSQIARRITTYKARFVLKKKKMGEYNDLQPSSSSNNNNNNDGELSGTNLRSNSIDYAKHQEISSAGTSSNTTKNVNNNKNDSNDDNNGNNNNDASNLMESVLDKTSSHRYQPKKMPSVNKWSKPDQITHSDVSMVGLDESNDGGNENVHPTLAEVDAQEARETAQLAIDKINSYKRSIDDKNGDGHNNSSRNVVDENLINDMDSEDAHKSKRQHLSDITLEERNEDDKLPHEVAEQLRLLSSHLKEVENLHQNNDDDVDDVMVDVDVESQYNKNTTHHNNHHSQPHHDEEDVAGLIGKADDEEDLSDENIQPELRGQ
# Assay: PBM E-score (8-mer binding enrichment) (E-score (-0.5 to 0.5)); higher = stronger / more preferred TF binding
# Conditions: protein concentration: 200 nM; construct: GST-full length
# Experimental: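 Universal 'all 10-mer' protein binding microarrays (Agilent AMADID 015681) probed with GST-tagged S. cerevisiae TFs (full-length or DBD) made by in vitro transcription/translation (PURExpress), about 100-200 nM. Bound TF was detected with fluorescent anti-GST. Each ungapped 8-mer (which stands for itself and its reverse complement) is scored by the PBM enrichment score (E-score), a modified Wilcoxon-Mann-Whitney statistic from -0.5 to +0.5, computed with the Universal PBM Analysis Suite. Scale: above 0.35 generally sequence-specific binding.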
row,Sequence,PBM E-score
1,CATAAAGC,-0.057
2,ATACACAG,-0.095
3,GGGTTATA,-0.105
4,CGGGTATC,0.0428
5,GCGGTCGA,0.042
6,TGGGGCAA,-0.281
7,AGGAATAC,-0.2
8,ATATTTAG,0.207
9,AATTTCGC,-0.0531
10,ATACGGCG,0.384
11,ATAGCATC,-0.029
12,GATCCGGA,-0.127
13,GAAAATCA,0.291
14,CAGGACAA,0.231
15,AGTCATGC,0.116
16,CCCACGTA,0.0479
17,CCGTACGA,0.451
18,CCGGCCGC,-0.279
19,AGGAAATA,0.221
20,ACACTCAG,0.116
21,CTTCACCA,-0.178
22,CTCTAGGA,-0.15
23,CTGAAATC,0.0623
24,AAAAAAGG,0.0797
25,AATTGTAT,0.158

# Some values from the list:
# Under PBM E-score, CTCTAGGA is entered as -0.15
# Under PBM E-score, CAGGACAA is entered as 0.231
# Under PBM E-score, AGTCATGC is entered as 0.116

# (cont.)

row,Sequence,PBM E-score
1,ATTTTGGA,0.118
2,CACTTCCC,0.0785
3,ACAGTGTC,-0.155
4,TGTCAAAA,0.139
5,AGGAATCA,0.111
6,AGCCCTGA,0.0154
7,GTTGTGTA,0.00481
8,GAGTCGTA,0.192
9,ACTGAATC,-0.0997
10,GGCCCGTA,0.0104
11,AATTCTAT,-0.0344
12,CCTTTGCG,-0.187
13,AGGAACCA,-0.149
14,CCACCCCC,-0.299
15,CTTGTATA,-0.0557
16,CAAGAAAG,-0.00869
17,CCAATCAC,0.0912
18,TCCCGGCA,-0.134
19,TCTAACAA,0.0754
20,ATGTGCTG,0.0573
21,AGTACTGC,-0.239
22,GTCTGTGA,-0.00952
23,AGATGTAC,0.0677
24,ATTATCAG,0.0821
25,ATACAGGC,-0.123

row,Sequence,PBM E-score
1,CCTGCAAC,0.0372
2,ATTAAATA,0.212
3,CGATGAGA,0.19
4,AGGGTAAC,-0.188
5,GTATAGAC,0.0256
6,AGCAGGTA,-0.151
7,CCTATGTA,-0.116
8,GCAGATGA,-0.0493
9,CAAACCGG,-0.136
10,CGCAAACG,0.252
11,ACCAAGGC,-0.275
12,CGGCGCTA,-0.0694
13,ACGGTAAC,0.118
14,AAGGTCCC,-0.0487
15,AGTGTCCG,0.00779
16,ATAGTCAC,0.256
17,AGGATATC,0.24
18,ATCCGGGA,-0.19
19,GCTCTGAA,0.0301
20,CGATTCAA,-0.0109
21,CAGACCGA,-0.0525
22,CTTGATCA,0.183
23,ACGAATCT,0.19
24,GCCACAAA,0.034
25,GGGCTCAC,-0.0271

row,Sequence,PBM E-score
1,CATGTGGA,-0.0725
2,ATCACACC,-0.0501
3,CTCTACAC,-0.0361
4,AGACGAAC,0.24
5,ACCAGGTC,-0.154
6,AGGACGTA,-0.0356
7,GGTCGGAA,-0.0499
8,AATGTCAA,-0.00569
9,AGACAACC,0.0479
10,CAGTTTTC,0.00232
11,AGCCTGAG,-0.27
12,AAAACAGG,-0.148
13,CAGTCAAC,-0.172
14,ATGCACAG,-0.151
15,TATGCAGA,0.128
16,AGCAGCCC,-0.25
17,ACATAAAG,0.0586
18,GGGCTCTA,-0.22
19,CATTAAGA,-0.0848
20,ACTTGCTA,-0.147
21,GTAAGTGA,0.208
22,CGATATGA,0.161
23,CCCATCGA,0.0289
24,ACAGGTTC,-0.257
25,CGATACCG,-0.0403

row,Sequence,PBM E-score
1,AAGTAGGA,0.0551
2,ACCCCCGT,-0.0911
3,CCTTACGC,-0.0286
4,AATTGCTA,-0.0559
5,CTCCTCCC,-0.201
6,AATTACTA,0.0958
7,CATATTAC,0.145
8,AATGCTGG,-0.141
9,ACGGGGCA,-0.00285
10,AGACTCGC,-0.238
11,GCTGAAAC,0.082
12,AGTTGCTG,-0.133
13,CATACTCC,-0.0369
14,AAGATACG,0.0984
15,CGCATAAG,-0.0581
16,CCCGCGGA,-0.0315
17,ATTCTGGG,-0.105
18,AAACCAAG,-0.0305
19,ATGAGTCG,0.0446
20,GACAGCTA,-0.00943
21,TCTCGCCA,0.0626
22,GACCACGC,0.0314
23,CCACACGC,-0.104
24,CTGGTAGA,-0.235
25,CGTTGTTC,0.114

row,Sequence,PBM E-score
1,CAAGTAAA,-0.0688
2,ACCTGGTC,-0.0792
3,CGTGCTAC,-0.00184
4,ACAATTTC,0.161
5,CGGGGTAA,0.0283
6,CATTCGGA,0.166
7,CCATCCAA,-0.112
8,ATCTGCCG,0.121
9,ATATGGTG,0.0579
10,CTCTGTAA,-0.0872
11,GCTTCCGA,0.0724
12,GTGAATTA,0.0465
13,ACCCCCAG,-0.138
14,GACCAGTA,-0.0693
15,CCAACTTC,-0.0929
16,ACAGAGGT,0.0944
17,AGCTTCCA,-0.0893
18,CTTAGAGC,-0.139
19,CGTAACAC,0.128
20,ACAGGCCT,-0.168
21,CGTTGAAC,0.223
22,GGGTGGTA,-0.128
23,AGCGATAA,0.28
24,CAACGGTC,0.074
25,AGAGGCGA,-0.0198

# Six entries picked at random from those above:
row,Sequence,PBM E-score
4,CGGGTATC,0.0428
8,AATGCTGG,-0.141
24,ATTATCAG,0.0821
7,AGGAATAC,-0.2
23,CTGAAATC,0.0623
6,TGGGGCAA,-0.281

# Continuation.

row,Sequence,PBM E-score
1,ACACGTAC,0.0287
2,GCCCCATA,-0.289
3,ACCTTCTA,0.0532
4,GAGCAATC,-0.088
5,GGAGGCCA,-0.411
6,AGAGGCAA,-0.181
7,CCAACAGA,-0.161
8,CCTACGCG,-0.0816
9,AGTGCTCG,-0.0709
10,GCTAGGAA,-0.159
11,CATTCTAG,0.0846
12,ATCTCGAG,-0.00814
13,GGGCTAAA,-0.129
14,AGCGGGGA,-0.308
15,CGGGTTTA,-0.106
16,ACACCGCT,-0.0667
17,CACCTACC,-0.112
18,CAGAAAAA,-0.0509
19,CTCGTGAC,0.344
20,ACGACCAA,0.182
21,AAATTTCT,-0.115
22,CCTATGCA,0.018
